Test results: the supplement of paper PMC12819154, “High-throughput peptide-centric local stability assay extends protein–ligand identification to membrane proteins, tissues and bacteria” (Nature Structural & Molecular Biology, 2025)
Some of the results follow. Small differences around the control level are noise.

Protein sequences, listed by entry. Tags and fused reporters are not part of them. Lines headed by an entry give the natural chain unless they say otherwise; changes in a name come on top.
UniProt Q13303: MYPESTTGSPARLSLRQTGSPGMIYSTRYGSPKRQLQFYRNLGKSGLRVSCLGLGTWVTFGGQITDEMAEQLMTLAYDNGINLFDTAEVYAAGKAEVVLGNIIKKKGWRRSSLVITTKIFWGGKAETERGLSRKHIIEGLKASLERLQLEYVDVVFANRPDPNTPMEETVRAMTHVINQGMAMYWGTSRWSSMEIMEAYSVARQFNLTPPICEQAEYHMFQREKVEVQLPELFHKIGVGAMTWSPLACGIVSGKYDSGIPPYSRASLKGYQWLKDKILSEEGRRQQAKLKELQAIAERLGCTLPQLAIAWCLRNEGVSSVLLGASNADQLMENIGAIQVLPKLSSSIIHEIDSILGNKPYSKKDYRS
UniProt Q14CW9: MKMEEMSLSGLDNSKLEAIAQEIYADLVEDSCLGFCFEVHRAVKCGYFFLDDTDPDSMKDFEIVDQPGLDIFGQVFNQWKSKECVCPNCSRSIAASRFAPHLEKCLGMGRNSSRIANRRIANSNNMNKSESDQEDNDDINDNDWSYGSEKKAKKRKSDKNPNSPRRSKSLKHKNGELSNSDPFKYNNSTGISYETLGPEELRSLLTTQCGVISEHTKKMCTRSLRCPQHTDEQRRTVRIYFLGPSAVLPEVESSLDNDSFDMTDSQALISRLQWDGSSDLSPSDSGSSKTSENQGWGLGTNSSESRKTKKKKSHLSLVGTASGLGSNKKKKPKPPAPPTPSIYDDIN
UniProt Q13574: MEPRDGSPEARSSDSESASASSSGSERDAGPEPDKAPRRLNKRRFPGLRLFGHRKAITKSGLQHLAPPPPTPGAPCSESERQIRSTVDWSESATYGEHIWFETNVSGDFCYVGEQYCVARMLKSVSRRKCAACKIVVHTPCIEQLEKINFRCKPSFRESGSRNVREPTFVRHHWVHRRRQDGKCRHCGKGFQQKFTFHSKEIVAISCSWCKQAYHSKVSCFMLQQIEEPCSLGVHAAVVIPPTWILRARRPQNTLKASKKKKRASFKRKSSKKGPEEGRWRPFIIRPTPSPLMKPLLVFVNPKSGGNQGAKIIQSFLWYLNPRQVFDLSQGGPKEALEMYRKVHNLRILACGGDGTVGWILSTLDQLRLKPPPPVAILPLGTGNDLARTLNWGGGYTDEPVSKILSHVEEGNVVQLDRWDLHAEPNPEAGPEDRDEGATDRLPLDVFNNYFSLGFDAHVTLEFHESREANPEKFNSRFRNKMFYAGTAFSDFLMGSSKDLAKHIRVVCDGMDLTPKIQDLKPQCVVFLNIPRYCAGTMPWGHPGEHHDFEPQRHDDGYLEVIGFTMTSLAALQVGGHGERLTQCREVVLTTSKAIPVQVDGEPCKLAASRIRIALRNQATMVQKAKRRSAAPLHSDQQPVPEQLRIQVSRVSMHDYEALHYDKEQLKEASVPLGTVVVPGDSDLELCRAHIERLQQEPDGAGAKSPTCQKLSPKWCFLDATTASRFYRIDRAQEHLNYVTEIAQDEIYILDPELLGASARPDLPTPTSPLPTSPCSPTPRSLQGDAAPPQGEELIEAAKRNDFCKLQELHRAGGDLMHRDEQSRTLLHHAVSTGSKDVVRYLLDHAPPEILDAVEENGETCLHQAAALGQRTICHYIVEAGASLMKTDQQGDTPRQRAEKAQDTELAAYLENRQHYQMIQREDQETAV
UniProt Q13428: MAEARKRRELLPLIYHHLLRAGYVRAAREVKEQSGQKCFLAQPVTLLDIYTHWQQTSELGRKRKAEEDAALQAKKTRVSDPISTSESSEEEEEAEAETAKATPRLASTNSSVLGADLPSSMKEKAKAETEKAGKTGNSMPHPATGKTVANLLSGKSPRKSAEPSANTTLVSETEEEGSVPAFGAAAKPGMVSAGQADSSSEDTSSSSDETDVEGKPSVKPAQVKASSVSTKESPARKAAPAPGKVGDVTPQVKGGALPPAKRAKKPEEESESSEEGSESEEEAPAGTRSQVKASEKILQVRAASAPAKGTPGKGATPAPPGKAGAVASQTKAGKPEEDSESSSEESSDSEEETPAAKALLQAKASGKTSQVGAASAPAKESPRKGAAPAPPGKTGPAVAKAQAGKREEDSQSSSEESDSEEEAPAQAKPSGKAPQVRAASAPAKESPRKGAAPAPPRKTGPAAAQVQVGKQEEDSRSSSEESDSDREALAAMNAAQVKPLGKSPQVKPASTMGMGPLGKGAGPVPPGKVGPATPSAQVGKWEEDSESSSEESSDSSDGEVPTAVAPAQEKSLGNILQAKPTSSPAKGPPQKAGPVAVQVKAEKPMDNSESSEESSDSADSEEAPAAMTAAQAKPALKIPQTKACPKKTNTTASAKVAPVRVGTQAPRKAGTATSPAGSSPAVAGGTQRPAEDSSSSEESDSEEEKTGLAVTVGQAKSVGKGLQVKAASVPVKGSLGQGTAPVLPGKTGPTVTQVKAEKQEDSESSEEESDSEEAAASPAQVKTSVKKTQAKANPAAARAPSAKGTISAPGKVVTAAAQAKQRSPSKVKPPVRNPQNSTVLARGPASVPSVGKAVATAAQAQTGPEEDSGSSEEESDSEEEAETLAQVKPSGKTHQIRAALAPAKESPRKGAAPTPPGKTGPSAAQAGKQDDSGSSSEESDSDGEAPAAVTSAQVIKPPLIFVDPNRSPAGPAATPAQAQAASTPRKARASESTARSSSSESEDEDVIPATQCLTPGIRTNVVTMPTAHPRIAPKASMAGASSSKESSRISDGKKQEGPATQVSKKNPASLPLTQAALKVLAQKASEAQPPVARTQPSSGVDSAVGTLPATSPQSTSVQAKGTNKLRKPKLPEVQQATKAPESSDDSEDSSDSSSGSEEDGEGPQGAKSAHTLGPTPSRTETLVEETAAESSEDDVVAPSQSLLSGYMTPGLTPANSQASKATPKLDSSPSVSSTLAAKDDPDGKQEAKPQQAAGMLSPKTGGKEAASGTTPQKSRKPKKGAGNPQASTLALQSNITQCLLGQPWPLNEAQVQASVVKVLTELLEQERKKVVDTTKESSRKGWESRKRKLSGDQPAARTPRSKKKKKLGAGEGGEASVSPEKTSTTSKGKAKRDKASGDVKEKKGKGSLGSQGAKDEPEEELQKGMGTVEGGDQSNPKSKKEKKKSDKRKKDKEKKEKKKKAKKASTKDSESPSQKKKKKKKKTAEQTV
UniProt Q13415: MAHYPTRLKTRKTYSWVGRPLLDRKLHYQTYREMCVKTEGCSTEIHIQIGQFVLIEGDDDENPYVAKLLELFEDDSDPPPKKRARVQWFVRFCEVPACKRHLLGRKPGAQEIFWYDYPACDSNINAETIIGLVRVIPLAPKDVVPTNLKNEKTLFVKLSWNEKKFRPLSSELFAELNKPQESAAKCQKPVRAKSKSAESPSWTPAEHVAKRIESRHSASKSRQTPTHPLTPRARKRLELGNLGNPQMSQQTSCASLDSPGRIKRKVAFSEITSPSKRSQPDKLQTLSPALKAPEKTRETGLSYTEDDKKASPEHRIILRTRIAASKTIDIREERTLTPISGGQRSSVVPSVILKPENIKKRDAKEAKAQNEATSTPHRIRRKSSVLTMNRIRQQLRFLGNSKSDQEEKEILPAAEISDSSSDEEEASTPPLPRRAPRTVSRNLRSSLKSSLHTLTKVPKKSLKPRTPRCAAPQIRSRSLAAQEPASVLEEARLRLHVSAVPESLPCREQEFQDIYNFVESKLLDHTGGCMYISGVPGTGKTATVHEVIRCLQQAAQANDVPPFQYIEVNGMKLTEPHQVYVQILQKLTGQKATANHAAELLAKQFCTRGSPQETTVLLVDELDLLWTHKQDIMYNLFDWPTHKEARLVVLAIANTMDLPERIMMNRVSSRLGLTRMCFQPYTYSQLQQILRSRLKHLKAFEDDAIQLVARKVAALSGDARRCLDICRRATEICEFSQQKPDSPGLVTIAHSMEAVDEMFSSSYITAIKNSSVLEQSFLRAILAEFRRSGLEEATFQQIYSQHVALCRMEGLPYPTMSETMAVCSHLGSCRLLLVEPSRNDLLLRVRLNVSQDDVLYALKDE
UniProt Q13362, whole entry, looked up: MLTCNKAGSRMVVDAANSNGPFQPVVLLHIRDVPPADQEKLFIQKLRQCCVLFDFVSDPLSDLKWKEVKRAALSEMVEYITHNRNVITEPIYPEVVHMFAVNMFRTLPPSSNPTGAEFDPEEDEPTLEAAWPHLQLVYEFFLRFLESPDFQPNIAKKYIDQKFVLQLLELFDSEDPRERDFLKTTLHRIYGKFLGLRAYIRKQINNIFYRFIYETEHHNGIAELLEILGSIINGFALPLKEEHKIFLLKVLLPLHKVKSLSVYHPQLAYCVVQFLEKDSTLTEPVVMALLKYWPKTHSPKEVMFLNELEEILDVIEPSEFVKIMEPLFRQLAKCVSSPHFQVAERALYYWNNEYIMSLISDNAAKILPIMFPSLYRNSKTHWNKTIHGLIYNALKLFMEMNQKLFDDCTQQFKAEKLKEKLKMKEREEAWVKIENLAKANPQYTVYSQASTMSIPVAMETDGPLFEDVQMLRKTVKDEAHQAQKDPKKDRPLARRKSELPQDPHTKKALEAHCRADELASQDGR
UniProt Q14451, whole entry: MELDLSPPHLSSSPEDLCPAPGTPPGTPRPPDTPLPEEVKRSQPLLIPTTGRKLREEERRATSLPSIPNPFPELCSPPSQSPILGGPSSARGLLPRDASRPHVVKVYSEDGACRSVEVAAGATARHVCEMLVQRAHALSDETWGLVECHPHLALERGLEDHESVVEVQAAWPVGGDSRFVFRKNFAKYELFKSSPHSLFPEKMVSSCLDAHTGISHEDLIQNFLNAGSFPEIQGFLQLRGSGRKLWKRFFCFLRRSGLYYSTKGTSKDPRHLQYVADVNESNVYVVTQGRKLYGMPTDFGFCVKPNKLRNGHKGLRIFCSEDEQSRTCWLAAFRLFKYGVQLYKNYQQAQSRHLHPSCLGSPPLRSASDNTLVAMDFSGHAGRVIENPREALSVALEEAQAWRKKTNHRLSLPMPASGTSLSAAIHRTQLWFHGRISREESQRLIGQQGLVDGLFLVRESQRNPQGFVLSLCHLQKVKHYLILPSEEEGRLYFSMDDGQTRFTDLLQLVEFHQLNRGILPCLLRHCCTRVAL
UniProt Q14119: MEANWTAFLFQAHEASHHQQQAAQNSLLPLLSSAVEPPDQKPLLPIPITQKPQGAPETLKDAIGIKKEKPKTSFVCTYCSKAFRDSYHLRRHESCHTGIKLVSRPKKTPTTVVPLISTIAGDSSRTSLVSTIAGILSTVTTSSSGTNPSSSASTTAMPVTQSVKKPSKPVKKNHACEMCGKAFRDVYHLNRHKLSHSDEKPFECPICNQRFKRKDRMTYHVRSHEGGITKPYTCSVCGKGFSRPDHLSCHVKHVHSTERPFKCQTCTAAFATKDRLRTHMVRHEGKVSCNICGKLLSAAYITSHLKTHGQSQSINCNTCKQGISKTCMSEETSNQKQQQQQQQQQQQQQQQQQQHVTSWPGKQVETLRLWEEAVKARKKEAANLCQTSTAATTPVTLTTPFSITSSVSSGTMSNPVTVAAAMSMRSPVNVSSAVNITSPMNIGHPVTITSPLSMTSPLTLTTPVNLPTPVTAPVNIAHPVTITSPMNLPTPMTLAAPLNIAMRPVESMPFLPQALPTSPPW
UniProt Q14244: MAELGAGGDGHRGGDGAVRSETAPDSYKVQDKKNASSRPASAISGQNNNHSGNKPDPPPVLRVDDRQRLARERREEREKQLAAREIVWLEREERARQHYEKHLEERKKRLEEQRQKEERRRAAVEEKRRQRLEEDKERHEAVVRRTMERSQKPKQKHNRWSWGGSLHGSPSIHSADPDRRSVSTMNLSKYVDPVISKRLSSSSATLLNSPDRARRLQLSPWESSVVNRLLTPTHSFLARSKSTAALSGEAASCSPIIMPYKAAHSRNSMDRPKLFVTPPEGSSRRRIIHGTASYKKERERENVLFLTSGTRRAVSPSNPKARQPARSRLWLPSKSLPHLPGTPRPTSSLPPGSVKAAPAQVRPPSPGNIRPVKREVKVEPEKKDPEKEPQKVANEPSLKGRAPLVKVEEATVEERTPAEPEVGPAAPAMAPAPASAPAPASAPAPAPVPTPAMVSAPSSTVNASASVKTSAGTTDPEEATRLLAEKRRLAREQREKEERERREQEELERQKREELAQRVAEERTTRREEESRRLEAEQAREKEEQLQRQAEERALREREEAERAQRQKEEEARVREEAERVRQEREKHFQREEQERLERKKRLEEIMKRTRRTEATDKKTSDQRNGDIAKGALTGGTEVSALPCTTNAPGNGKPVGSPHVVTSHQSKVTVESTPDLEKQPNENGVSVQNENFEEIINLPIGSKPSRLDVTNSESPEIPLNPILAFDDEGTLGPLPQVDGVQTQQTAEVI
UniProt Q13243: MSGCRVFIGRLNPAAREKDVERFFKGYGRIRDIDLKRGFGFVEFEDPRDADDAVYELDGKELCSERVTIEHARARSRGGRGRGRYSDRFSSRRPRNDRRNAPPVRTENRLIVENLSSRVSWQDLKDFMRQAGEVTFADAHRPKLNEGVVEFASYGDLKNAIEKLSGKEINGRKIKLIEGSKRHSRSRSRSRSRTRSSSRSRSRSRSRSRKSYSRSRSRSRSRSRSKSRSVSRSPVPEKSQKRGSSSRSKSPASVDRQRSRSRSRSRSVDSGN

The targets below were run with CN[C@@H]1C[C@H]2O[C@@](C)([C@@H]1OC)n1c3ccccc3c3c4c(c5c6ccccc6n2c5c31)C(=O)NC4 [staurosporine] (assay: log2 fold change of tryptic peptide abundance, ligand vs vehicle (limited proteolysis) (log2 ratio); higher = more trypsin-susceptible (destabilized)). Conditions: ligand concentration: 20 uM; sample: K562 cleared lysate; digestion: 4 min, 22 C (HT-PELSA RT4min, Orbitrap Astral).
For “KCNAB2 (peptide sequence: MYPESTTGSPAR, peptide start residue: 1) (UniProt Q13303)”, the log2 fold change was -0.364. With “ALKBH1 (peptide sequence: LYSQKPNVCNLDK, peptide start residue: 121) (UniProt Q13686)” the log2 fold change was -0.167. In the case of “AP3B2 (peptide sequence: KLLQMQPAQHGEIIK, peptide start residue: 467) (UniProt Q13367)”, the log2 fold change is reported as 0.399. “EFR3A (peptide sequence: LTFYAVSAPEKLDR, peptide start residue: 40) (UniProt Q14156)” gave a log2 fold change of 0.762. Work on “ATXN7L3 (peptide sequence: IANSNNMNK, peptide start residue: 120) (UniProt Q14CW9)” yielded a log2 fold change of 0.482. “EIF4EBP2 (peptide sequence: KHAVGDDAQFEMDI, peptide start residue: 107) (UniProt Q13542)” showed a log2 fold change of -0.381. “RRS1 (peptide sequence: EKPLPRPR, peptide start residue: 102) (UniProt Q15050)” was tested, and the log2 fold change was 0.3. In the case of “BMS1 (peptide sequence: KHFNSLHIPK, peptide start residue: 1159) (UniProt Q14692)”, the log2 fold change is reported as 1.08. Target “DGKZ (peptide sequence: DAGPEPDKAPR, peptide start residue: 28) (UniProt Q13574)” has a log2 fold change of 0.508. “UniProt Q13474 (peptide sequence: MQILEDHNK, peptide start residue: 3332)” gave a log2 fold change of 0.0203. “TCOF1 (peptide sequence: NPASLPLTQAALK, peptide start residue: 1066) (UniProt Q13428)” was tested, and the log2 fold change was 0.213. In the case of “ORC1 (peptide sequence: LTEPHQVYVQILQK, peptide start residue: 573) (UniProt Q13415)”, the log2 fold change is reported as -0.651. Target “NCOA4 (peptide sequence: GVEIENLGNLK, peptide start residue: 357) (UniProt Q13772)” has a log2 fold change of -0.186. Target “NAE1 (peptide sequence: LADVLWNSQIPLLICR, peptide start residue: 139) (UniProt Q13564)” has a log2 fold change of 0.486. Work on “PPP2R5C (peptide sequence: LFDDCTQQFK, peptide start residue: 404) (UniProt Q13362)” yielded a log2 fold change of 0.133. “UniProt Q14451 (peptide sequence: SQPLLIPTTGR, peptide start residue: 42)” showed a log2 fold change of 0.264. In the case of “KPNB1 (peptide sequence: LAATNALLNSLEFTK, peptide start residue: 192) (UniProt Q14974)”, the log2 fold change is reported as 0.695. With “VEZF1 (peptide sequence: TSFVCTYCSK, peptide start residue: 72) (UniProt Q14119)” the log2 fold change was 0.206. Target “NFATC2 (peptide sequence: VHIPESSGR, peptide start residue: 548) (UniProt Q13469)” has a log2 fold change of 0.239. Target “UniProt Q14209 (peptide sequence: LAYVTYQDIR, peptide start residue: 296)” has a log2 fold change of 0.245. Work on “GAPVD1 (peptide sequence: SECSSDFGGK, peptide start residue: 787) (UniProt Q14C86)” yielded a log2 fold change of -0.212. Target “PABPC4 (peptide sequence: KFEQLKQER, peptide start residue: 279) (UniProt Q13310)” has a log2 fold change of 0.257. “MAP7 (peptide sequence: EIVWLEREER, peptide start residue: 85) (UniProt Q14244)” gave a log2 fold change of -0.127. Work on “GRB10 (peptide sequence: LLCAEDEQTR, peptide start residue: 378) (UniProt Q13322)” yielded a log2 fold change of 0.586. Work on “SETDB1 (peptide sequence: ELLCCCGAIECR, peptide start residue: 1276) (UniProt Q15047)” yielded a log2 fold change of 0.665. With “GTF2H2 (peptide sequence: VFEHHGQVR, peptide start residue: 46) (UniProt Q13888)” the log2 fold change was 0.217. Work on “UniProt Q13243 (peptide sequence: GFGFVEFEDPR, peptide start residue: 38)” yielded a log2 fold change of -0.106. “SHPRH (peptide sequence: TVEVLALILTHTR, peptide start residue: 380) (UniProt Q149N8)” was tested, and the log2 fold change was 0.738.
